Our source for the binding values is PMC4207637.

Chains of the proteins cited; added tags and fusions are not shown.
UniProt O95832: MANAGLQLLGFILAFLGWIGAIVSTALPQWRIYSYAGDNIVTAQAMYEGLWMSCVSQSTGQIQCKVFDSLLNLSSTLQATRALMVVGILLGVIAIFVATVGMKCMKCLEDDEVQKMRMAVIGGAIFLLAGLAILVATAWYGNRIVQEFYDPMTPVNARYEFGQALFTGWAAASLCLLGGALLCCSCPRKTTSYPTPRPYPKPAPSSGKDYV
UniProt Q01546: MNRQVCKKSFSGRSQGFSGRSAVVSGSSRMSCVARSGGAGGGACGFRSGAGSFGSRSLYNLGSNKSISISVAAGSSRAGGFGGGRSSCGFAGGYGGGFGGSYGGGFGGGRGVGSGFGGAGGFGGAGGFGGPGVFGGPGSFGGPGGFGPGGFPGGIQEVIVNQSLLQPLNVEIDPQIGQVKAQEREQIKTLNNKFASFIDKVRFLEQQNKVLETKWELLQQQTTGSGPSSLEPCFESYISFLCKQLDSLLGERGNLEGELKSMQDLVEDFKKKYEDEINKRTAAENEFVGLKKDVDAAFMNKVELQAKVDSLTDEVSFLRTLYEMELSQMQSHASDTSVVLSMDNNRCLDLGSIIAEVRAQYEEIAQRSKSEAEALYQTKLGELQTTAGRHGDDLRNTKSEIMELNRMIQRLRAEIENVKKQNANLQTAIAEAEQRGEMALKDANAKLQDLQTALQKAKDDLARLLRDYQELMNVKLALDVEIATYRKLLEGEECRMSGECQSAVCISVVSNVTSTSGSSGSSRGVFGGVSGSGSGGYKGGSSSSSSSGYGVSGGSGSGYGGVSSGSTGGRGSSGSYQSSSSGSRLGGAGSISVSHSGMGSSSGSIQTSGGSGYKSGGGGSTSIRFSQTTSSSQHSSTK

The target in this experiment is Claudin1 (CLDN1), endogenous in A549 cells (human (endogenous in A549)) (UniProt O95832). The experiment in a line: co-IP; soluble extract of confluent A549 cells (1% Triton X-100 in TBS, 2 hrs at 4°C); anti-CLDN1 or non-immune IgG on Pierce Crosslink IP columns; washed 3 times in lysis buffer; blotted for ZO-1, CLDN1 and KRT76.

These are yes or no findings as the source states them, for the method shown. Binding seen in cells or lysates may run through a third protein. Some binding calls cover weakened binding; strength is not graded here.

Take “Keratin 76 (KRT76), endogenous in A549 cells (from UniProt Q01546 1-638)”: the binding result was “binds”.
